Results as given in the supplement of paper PMC6411743.
± gives the standard deviation of the averaged measurements. Only a part is listed here, and it is no random draw. Most entries show no effect beyond the scatter of the controls.

The chains behind the UniProt entries cited, without tags or fusion partners. Where a name states a change or a piece, a line headed by the entry shows the natural chain unless it says otherwise.
UniProt Q9UG22: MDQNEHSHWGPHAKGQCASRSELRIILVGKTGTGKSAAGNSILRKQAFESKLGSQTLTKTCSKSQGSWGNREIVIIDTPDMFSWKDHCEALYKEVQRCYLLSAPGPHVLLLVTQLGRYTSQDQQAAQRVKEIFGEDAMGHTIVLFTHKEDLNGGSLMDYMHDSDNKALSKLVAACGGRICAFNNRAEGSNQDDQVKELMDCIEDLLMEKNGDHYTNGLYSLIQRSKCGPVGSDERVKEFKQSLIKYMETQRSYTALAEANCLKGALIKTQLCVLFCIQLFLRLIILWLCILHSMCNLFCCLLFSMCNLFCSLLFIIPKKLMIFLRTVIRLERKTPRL
UniProt Q9Y259: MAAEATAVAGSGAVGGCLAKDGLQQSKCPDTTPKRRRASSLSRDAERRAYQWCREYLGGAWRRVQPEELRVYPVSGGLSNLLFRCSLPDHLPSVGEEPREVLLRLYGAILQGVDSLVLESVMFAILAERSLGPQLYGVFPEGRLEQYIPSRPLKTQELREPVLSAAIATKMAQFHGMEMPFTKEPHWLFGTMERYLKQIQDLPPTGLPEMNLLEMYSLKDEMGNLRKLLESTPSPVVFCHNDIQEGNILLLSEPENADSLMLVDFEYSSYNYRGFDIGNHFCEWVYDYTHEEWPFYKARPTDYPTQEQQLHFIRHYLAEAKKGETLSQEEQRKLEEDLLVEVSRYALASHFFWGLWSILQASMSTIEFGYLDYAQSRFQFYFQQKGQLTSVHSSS
UniProt Q9ULC4: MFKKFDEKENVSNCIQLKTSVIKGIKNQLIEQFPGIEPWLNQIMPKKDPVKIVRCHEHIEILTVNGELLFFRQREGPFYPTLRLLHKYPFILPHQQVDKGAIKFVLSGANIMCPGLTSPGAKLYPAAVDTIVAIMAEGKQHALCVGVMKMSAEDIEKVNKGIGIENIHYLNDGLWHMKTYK
UniProt Q9Y285: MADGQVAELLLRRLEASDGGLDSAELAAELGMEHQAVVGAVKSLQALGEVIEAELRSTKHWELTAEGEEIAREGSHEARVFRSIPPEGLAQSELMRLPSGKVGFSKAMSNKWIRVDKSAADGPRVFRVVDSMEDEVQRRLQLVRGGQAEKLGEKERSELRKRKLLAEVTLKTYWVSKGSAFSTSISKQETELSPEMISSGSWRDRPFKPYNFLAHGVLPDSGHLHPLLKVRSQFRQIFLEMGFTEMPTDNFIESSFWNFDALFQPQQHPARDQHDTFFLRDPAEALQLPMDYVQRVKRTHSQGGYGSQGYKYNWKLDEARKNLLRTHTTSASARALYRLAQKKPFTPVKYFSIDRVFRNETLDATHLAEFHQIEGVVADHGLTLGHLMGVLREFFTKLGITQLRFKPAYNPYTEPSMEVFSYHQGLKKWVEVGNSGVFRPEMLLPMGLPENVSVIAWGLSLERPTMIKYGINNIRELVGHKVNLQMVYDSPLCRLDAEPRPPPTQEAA
UniProt Q9UL40: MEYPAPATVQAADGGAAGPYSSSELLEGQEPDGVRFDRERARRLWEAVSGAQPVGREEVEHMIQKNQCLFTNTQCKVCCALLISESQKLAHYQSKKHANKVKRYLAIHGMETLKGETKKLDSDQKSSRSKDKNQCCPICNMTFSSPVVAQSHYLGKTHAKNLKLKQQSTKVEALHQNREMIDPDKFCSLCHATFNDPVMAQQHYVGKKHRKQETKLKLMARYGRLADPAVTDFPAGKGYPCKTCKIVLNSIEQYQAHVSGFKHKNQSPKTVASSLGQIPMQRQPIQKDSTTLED
UniProt Q9Y2H2: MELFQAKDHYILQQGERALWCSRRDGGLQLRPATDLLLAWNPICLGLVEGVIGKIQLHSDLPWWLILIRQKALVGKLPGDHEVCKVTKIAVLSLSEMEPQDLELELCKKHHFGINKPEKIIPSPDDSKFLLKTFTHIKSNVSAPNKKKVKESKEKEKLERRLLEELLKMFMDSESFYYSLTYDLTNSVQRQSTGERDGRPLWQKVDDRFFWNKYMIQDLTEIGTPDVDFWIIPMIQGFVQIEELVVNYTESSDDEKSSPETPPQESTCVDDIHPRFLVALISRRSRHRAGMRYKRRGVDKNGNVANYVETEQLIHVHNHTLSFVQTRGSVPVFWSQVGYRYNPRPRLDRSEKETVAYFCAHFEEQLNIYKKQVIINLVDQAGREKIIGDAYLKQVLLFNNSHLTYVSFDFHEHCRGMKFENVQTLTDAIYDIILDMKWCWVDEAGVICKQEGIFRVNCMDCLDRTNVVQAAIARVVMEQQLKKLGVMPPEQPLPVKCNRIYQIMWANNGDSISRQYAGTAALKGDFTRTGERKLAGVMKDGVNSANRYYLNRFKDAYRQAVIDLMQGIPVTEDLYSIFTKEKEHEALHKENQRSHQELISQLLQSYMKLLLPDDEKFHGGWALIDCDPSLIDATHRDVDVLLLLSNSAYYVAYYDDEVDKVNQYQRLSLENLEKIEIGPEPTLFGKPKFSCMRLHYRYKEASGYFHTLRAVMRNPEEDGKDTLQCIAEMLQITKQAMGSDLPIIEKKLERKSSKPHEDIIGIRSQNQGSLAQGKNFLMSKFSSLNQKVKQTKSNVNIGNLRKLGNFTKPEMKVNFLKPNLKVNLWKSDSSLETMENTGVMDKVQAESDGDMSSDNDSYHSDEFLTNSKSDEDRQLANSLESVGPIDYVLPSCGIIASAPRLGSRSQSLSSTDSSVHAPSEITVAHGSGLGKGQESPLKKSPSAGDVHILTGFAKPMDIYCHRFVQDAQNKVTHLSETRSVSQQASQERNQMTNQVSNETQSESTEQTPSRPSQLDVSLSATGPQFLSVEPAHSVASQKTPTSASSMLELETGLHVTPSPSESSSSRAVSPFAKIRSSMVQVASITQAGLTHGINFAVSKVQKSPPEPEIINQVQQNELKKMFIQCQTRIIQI
UniProt Q9UJ68: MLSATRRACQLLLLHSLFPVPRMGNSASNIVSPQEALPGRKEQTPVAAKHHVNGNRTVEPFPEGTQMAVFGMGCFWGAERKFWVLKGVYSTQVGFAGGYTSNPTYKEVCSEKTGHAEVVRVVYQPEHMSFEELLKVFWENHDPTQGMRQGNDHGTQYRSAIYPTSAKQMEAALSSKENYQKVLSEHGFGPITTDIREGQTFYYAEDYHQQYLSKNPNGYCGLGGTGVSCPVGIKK
UniProt Q9Y2Q3: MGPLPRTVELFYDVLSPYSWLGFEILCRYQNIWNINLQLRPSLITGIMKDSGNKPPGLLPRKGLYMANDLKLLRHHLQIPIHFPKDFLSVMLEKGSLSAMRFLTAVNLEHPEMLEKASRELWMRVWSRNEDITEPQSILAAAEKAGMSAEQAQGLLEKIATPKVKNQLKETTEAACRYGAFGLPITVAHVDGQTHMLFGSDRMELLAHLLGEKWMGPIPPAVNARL
UniProt Q9UFN0: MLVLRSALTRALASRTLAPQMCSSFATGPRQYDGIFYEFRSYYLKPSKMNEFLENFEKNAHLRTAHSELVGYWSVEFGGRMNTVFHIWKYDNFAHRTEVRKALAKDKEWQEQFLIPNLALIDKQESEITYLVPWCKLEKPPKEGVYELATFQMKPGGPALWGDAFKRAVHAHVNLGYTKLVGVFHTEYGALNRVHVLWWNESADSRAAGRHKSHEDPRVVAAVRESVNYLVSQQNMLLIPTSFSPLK
UniProt Q9Y2G5: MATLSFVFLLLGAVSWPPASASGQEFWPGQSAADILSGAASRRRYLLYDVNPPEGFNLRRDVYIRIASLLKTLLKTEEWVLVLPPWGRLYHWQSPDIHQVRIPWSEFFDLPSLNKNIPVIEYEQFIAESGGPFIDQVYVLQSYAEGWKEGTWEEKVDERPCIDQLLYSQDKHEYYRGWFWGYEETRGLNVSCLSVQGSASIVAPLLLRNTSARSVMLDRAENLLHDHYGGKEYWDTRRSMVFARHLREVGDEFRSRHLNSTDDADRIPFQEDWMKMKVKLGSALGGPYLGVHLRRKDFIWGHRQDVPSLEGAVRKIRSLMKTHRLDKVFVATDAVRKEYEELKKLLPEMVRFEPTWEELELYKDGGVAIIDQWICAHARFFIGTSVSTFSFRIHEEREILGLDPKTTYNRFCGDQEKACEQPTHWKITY
UniProt Q9UBW8: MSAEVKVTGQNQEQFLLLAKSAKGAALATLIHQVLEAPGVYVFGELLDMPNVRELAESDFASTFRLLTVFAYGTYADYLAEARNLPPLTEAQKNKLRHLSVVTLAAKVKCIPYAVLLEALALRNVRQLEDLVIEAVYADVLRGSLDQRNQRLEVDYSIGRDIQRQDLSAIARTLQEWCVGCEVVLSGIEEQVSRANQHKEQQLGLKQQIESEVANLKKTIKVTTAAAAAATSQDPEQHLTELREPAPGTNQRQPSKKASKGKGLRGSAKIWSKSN
UniProt Q9UHN1: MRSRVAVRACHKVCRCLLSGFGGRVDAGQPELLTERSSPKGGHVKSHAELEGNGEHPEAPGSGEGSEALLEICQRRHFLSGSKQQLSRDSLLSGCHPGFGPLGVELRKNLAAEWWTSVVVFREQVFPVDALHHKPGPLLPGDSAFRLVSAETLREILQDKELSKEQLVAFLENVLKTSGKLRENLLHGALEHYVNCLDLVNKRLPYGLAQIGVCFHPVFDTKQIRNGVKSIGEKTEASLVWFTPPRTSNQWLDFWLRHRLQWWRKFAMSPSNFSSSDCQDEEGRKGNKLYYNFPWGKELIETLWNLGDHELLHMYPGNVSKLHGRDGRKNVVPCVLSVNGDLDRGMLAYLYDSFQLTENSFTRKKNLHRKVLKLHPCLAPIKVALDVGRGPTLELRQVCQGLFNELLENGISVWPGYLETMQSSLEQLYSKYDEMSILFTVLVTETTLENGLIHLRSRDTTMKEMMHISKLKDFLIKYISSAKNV
UniProt Q9UK58: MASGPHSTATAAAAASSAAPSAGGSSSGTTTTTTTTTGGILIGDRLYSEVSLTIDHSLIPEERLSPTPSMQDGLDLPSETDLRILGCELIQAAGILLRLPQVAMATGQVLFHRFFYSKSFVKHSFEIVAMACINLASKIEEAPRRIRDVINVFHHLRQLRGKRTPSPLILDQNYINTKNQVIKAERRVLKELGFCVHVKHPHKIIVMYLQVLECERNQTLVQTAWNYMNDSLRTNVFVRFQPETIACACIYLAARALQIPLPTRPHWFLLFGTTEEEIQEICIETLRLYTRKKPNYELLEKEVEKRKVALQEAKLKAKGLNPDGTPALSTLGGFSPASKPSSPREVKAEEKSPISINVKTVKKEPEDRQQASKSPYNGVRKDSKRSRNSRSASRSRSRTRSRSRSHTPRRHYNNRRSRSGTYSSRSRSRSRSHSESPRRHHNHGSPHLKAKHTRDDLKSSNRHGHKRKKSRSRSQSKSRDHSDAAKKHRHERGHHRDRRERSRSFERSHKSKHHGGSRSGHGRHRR
UniProt Q9UPT8: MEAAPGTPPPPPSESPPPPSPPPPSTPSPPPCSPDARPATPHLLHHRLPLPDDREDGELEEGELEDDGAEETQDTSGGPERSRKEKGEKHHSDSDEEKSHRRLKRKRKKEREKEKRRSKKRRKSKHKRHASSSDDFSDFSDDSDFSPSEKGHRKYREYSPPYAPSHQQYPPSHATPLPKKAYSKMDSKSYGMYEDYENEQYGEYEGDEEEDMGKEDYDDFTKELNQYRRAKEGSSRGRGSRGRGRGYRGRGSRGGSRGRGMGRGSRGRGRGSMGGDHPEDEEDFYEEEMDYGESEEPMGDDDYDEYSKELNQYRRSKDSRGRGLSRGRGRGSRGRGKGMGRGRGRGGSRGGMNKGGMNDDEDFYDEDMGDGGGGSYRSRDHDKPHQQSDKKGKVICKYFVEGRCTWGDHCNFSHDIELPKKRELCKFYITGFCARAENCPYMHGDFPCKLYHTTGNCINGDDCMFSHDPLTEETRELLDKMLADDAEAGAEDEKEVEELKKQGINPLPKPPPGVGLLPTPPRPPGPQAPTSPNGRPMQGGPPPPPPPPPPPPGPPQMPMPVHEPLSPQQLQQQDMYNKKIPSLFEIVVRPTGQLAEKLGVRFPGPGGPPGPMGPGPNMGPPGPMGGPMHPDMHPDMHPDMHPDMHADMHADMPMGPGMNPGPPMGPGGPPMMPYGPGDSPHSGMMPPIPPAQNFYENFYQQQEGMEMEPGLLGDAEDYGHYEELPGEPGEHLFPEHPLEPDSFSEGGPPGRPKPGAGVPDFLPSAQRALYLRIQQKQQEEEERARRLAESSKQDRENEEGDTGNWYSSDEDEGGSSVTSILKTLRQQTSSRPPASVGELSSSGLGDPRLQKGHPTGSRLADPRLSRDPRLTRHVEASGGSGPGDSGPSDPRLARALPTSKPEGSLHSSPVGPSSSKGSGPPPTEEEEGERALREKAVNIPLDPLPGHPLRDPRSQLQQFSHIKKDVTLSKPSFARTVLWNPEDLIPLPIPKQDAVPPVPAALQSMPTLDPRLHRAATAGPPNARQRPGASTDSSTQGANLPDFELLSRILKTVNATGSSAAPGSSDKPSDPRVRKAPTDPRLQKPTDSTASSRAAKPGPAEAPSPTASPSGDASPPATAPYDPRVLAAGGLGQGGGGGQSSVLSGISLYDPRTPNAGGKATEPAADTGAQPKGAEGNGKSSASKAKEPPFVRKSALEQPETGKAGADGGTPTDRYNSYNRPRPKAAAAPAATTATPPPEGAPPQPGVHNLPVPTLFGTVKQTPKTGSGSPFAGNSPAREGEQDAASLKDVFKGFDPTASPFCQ

Compound: Nc1ncnc2c1ncn2[C@@H]1O[C@H](COP(=O)(O)OP(=O)(O)NP(=O)(O)O)[C@@H](O)[C@H]1O [adenylyl imidodiphosphate]
Experiment: NP40-soluble protein abundance relative to vehicle (solubility fold change) (ratio); higher = more soluble protein in presence of AMP-PNP
In short: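 In three independent experiments, Jurkat crude lysate made by Dounce homogenisation was treated for 10 min at room temperature and then 3 min at 37 °C with eight concentrations ranging from 0.1 to 10 mM. It was then solubilised with 0.8% NP40 plus benzonase for 60 min at 4 °C and ultracentrifuged. The supernatant was TMT-labelled for LC-MS/MS, and each value is the fold change against the detergent-processed vehicle for the same replicate, using vsn-normalised intensities.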

Work on COPS3 (UniProt Q9UNS2) yielded an NP40-soluble protein abundance (concentration: 0.1mM) of 1.02 ± 0.034 and an NP40-soluble protein abundance (concentration: 0.5mM) of 1 ± 0.019.
UBQLN1 (UniProt Q9UMX0) gave an NP40-soluble protein abundance (concentration: 0.1mM) of 0.999 ± 0.025 and an NP40-soluble protein abundance (concentration: 0.5mM) of 1.1 ± 0.088.
For UniProt Q9Y2H6 and related entries, the NP40-soluble protein abundance (concentration: 0.1mM) was 0.983 ± 0.026 and the NP40-soluble protein abundance (concentration: 0.5mM) was 0.993 ± 0.035.
With UniProt Q9UG22 the NP40-soluble protein abundance (concentration: 0.1mM) was 1.01 ± 0.037 and the NP40-soluble protein abundance (concentration: 0.5mM) was 1.01 ± 0.051.
For UniProt Q9Y259 and related entries, the NP40-soluble protein abundance (concentration: 0.1mM) was 1 ± 0.011 and the NP40-soluble protein abundance (concentration: 0.5mM) was 0.993 ± 0.044.
Work on EPDR1 (UniProt Q9UM22) yielded an NP40-soluble protein abundance (concentration: 0.1mM) of 1.03 ± 0.044 and an NP40-soluble protein abundance (concentration: 0.5mM) of 1.07 ± 0.08.
Target UniProt Q9UIS9 and related entries has an NP40-soluble protein abundance (concentration: 0.1mM) of 0.9993 ± 0.006 and an NP40-soluble protein abundance (concentration: 0.5mM) of 1.02 ± 0.029.
Work on UniProt Q9UP83 and related entries yielded an NP40-soluble protein abundance (concentration: 0.1mM) of 1.02 ± 0.026 and an NP40-soluble protein abundance (concentration: 0.5mM) of 1.03 ± 0.014.
For NUDC (UniProt Q9Y266), the NP40-soluble protein abundance (concentration: 0.1mM) was 0.981 ± 0.024 and the NP40-soluble protein abundance (concentration: 0.5mM) was 1.02 ± 0.041.
With AKAP11 (UniProt Q9UKA4) the NP40-soluble protein abundance (concentration: 0.1mM) was 0.974 ± 0.039 and the NP40-soluble protein abundance (concentration: 0.5mM) was 0.992 ± 0.041.
Target UniProt Q9Y2S2 and related entries has an NP40-soluble protein abundance (concentration: 0.1mM) of 1.02 ± 0.052 and an NP40-soluble protein abundance (concentration: 0.5mM) of 1 ± 0.11.
UniProt Q9UDY8 and related entries was tested, and the NP40-soluble protein abundance (concentration: 0.1mM) was 0.998 ± 0.032 and the NP40-soluble protein abundance (concentration: 0.5mM) was 0.955 ± 0.038.
For UniProt Q9ULC4 and related entries, the NP40-soluble protein abundance (concentration: 0.1mM) was 1.01 ± 0.019 and the NP40-soluble protein abundance (concentration: 0.5mM) was 0.998 ± 0.032.
UniProt Q9UPZ3 and related entries showed an NP40-soluble protein abundance (concentration: 0.1mM) of 0.992 ± 0.02 and an NP40-soluble protein abundance (concentration: 0.5mM) of 1.02 ± 0.022.
For NSFL1C (UniProt Q9UNZ2), the NP40-soluble protein abundance (concentration: 0.1mM) was 0.972 ± 0.04 and the NP40-soluble protein abundance (concentration: 0.5mM) was 0.958 ± 0.033.
With FARSA (UniProt Q9Y285) the NP40-soluble protein abundance (concentration: 0.1mM) was 1.03 ± 0.025 and the NP40-soluble protein abundance (concentration: 0.5mM) was 1.02 ± 0.055.
For UniProt Q9Y2I8 and related entries, the NP40-soluble protein abundance (concentration: 0.1mM) was 1 ± 0.015 and the NP40-soluble protein abundance (concentration: 0.5mM) was 1 ± 0.019.
With UniProt Q9UL40 and related entries the NP40-soluble protein abundance (concentration: 0.1mM) was 1 ± 0.022 and the NP40-soluble protein abundance (concentration: 0.5mM) was 1.03 ± 0.0018.
In the case of DUSP12 (UniProt Q9UNI6), the NP40-soluble protein abundance (concentration: 0.1mM) is reported as 1 ± 0.039 and the NP40-soluble protein abundance (concentration: 0.5mM) is reported as 1.03 ± 0.067.
For “UniProt Q9ULU4-11|Q9ULU4-19|Q9ULU4-7|A0A087WYS3|Q9ULU4-13|Q9ULU4-22|Q9ULU4-8|Q9ULU4-9”, the NP40-soluble protein abundance (concentration: 0.1mM) was 0.996 ± 0.032 and the NP40-soluble protein abundance (concentration: 0.5mM) was 0.986 ± 0.021.
Target USP24 (UniProt Q9UPU5) has an NP40-soluble protein abundance (concentration: 0.1mM) of 0.999 ± 0.022 and an NP40-soluble protein abundance (concentration: 0.5mM) of 0.964 ± 0.05.
With SLC5A6 (UniProt Q9Y289) the NP40-soluble protein abundance (concentration: 0.1mM) was 1.02 ± 0.02 and the NP40-soluble protein abundance (concentration: 0.5mM) was 0.995 ± 0.075.
Target UniProt Q9UNF0 and related entries has an NP40-soluble protein abundance (concentration: 0.1mM) of 1.01 ± 0.032 and an NP40-soluble protein abundance (concentration: 0.5mM) of 1.03 ± 0.061.
With UniProt Q9Y250 and related entries the NP40-soluble protein abundance (concentration: 0.1mM) was 0.999 ± 0.024 and the NP40-soluble protein abundance (concentration: 0.5mM) was 1.02 ± 0.036.
For CYB5R1 (UniProt Q9UHQ9), the NP40-soluble protein abundance (concentration: 0.1mM) was 1.03 ± 0.028 and the NP40-soluble protein abundance (concentration: 0.5mM) was 1.01 ± 0.11.
With YARS2 (UniProt Q9Y2Z4) the NP40-soluble protein abundance (concentration: 0.1mM) was 1.01 ± 0.04 and the NP40-soluble protein abundance (concentration: 0.5mM) was 0.97 ± 0.076.
With RUVBL1 (UniProt Q9Y265) the NP40-soluble protein abundance (concentration: 0.1mM) was 1.04 ± 0.04 and the NP40-soluble protein abundance (concentration: 0.5mM) was 1.05 ± 0.036.
For UniProt Q9UJY5 and related entries, the NP40-soluble protein abundance (concentration: 0.1mM) was 0.999 ± 0.018 and the NP40-soluble protein abundance (concentration: 0.5mM) was 0.998 ± 0.02.
Target UniProt Q9UPN6 and related entries has an NP40-soluble protein abundance (concentration: 0.1mM) of 0.995 ± 0.016 and an NP40-soluble protein abundance (concentration: 0.5mM) of 0.992 ± 0.032.
Target UniProt Q9UKX3 has an NP40-soluble protein abundance (concentration: 0.1mM) of 0.983 ± 0.068 and an NP40-soluble protein abundance (concentration: 0.5mM) of 0.996 ± 0.021.
Work on SCML2 (UniProt Q9UQR0) yielded an NP40-soluble protein abundance (concentration: 0.1mM) of 1.02 ± 0.044 and an NP40-soluble protein abundance (concentration: 0.5mM) of 1.05 ± 0.07.
UniProt Q9UJU2 and related entries gave an NP40-soluble protein abundance (concentration: 0.1mM) of 1.01 ± 0.066 and an NP40-soluble protein abundance (concentration: 0.5mM) of 1.04 ± 0.12.
In the case of DNAJB11 (UniProt Q9UBS4), the NP40-soluble protein abundance (concentration: 0.1mM) is reported as 1 ± 0.014 and the NP40-soluble protein abundance (concentration: 0.5mM) is reported as 0.955 ± 0.027.
Target UniProt Q9UKA9 and related entries has an NP40-soluble protein abundance (concentration: 0.1mM) of 1 ± 0.028 and an NP40-soluble protein abundance (concentration: 0.5mM) of 1.02 ± 0.02.
In the case of INPP5F (UniProt Q9Y2H2), the NP40-soluble protein abundance (concentration: 0.1mM) is reported as 0.993 ± 0.024 and the NP40-soluble protein abundance (concentration: 0.5mM) is reported as 0.975 ± 0.013.
UniProt Q9ULK6 and related entries gave an NP40-soluble protein abundance (concentration: 0.1mM) of 1.04 ± 0.11 and an NP40-soluble protein abundance (concentration: 0.5mM) of 1.016 ± 0.008.
Target STUB1 (UniProt Q9UNE7) has an NP40-soluble protein abundance (concentration: 0.1mM) of 0.991 ± 0.026 and an NP40-soluble protein abundance (concentration: 0.5mM) of 1.02 ± 0.021.
Target UniProt Q9UJ68 and related entries has an NP40-soluble protein abundance (concentration: 0.1mM) of 1.01 ± 0.1 and an NP40-soluble protein abundance (concentration: 0.5mM) of 1.01 ± 0.054.
For CGGBP1 (UniProt Q9UFW8), the NP40-soluble protein abundance (concentration: 0.1mM) was 0.9905 ± 0.0032 and the NP40-soluble protein abundance (concentration: 0.5mM) was 1.04 ± 0.066.
With GSTK1 (UniProt Q9Y2Q3) the NP40-soluble protein abundance (concentration: 0.1mM) was 1.04 ± 0.02 and the NP40-soluble protein abundance (concentration: 0.5mM) was 1.03 ± 0.04.
Target NIPSNAP3A (UniProt Q9UFN0) has an NP40-soluble protein abundance (concentration: 0.1mM) of 1.02 ± 0.034 and an NP40-soluble protein abundance (concentration: 0.5mM) of 1 ± 0.07.
Target UniProt Q9Y291 and related entries has an NP40-soluble protein abundance (concentration: 0.1mM) of 1.07 ± 0.03 and an NP40-soluble protein abundance (concentration: 0.5mM) of 1.04 ± 0.037.
PLCL2 (UniProt Q9UPR0) showed an NP40-soluble protein abundance (concentration: 0.1mM) of 1.05 ± 0.034 and an NP40-soluble protein abundance (concentration: 0.5mM) of 1.03 ± 0.017.
Target POFUT2 (UniProt Q9Y2G5) has an NP40-soluble protein abundance (concentration: 0.1mM) of 0.9975 ± 0.0049 and an NP40-soluble protein abundance (concentration: 0.5mM) of 1 ± 0.014.
COPS7A (UniProt Q9UBW8) showed an NP40-soluble protein abundance (concentration: 0.1mM) of 0.984 ± 0.047 and an NP40-soluble protein abundance (concentration: 0.5mM) of 1 ± 0.018.
With FKBPL (UniProt Q9UIM3) the NP40-soluble protein abundance (concentration: 0.1mM) was 0.982 ± 0.016 and the NP40-soluble protein abundance (concentration: 0.5mM) was 1.01 ± 0.065.
For LSM7 (UniProt Q9UK45), the NP40-soluble protein abundance (concentration: 0.1mM) was 1.02 ± 0.089 and the NP40-soluble protein abundance (concentration: 0.5mM) was 1.06 ± 0.14.
Target POLG2 (UniProt Q9UHN1) has an NP40-soluble protein abundance (concentration: 0.1mM) of 1.08 ± 0.083 and an NP40-soluble protein abundance (concentration: 0.5mM) of 1.05 ± 0.064.
UniProt Q9UK58 and related entries gave an NP40-soluble protein abundance (concentration: 0.1mM) of 0.986 ± 0.052 and an NP40-soluble protein abundance (concentration: 0.5mM) of 1.02 ± 0.061.
In the case of ZC3H4 (UniProt Q9UPT8), the NP40-soluble protein abundance (concentration: 0.1mM) is reported as 0.979 ± 0.035 and the NP40-soluble protein abundance (concentration: 0.5mM) is reported as 1.01 ± 0.04.
UniProt Q9Y2Y0 and related entries gave an NP40-soluble protein abundance (concentration: 0.1mM) of 0.996 ± 0.031 and an NP40-soluble protein abundance (concentration: 0.5mM) of 0.988 ± 0.028.
In the case of SNX6 (UniProt Q9UNH7), the NP40-soluble protein abundance (concentration: 0.1mM) is reported as 0.976 ± 0.019 and the NP40-soluble protein abundance (concentration: 0.5mM) is reported as 1.02 ± 0.056.
Target MRPS23 (UniProt Q9Y3D9) has an NP40-soluble protein abundance (concentration: 0.1mM) of 1.03 ± 0.022 and an NP40-soluble protein abundance (concentration: 0.5mM) of 1.02 ± 0.027.
MRPS2 (UniProt Q9Y399) gave an NP40-soluble protein abundance (concentration: 0.1mM) of 1.03 ± 0.043 and an NP40-soluble protein abundance (concentration: 0.5mM) of 1.01 ± 0.044.
With UniProt Q9Y3B2 and related entries the NP40-soluble protein abundance (concentration: 0.1mM) was 0.946 ± 0.018 and the NP40-soluble protein abundance (concentration: 0.5mM) was 1.02 ± 0.031.
AK3 (UniProt Q9UIJ7) showed an NP40-soluble protein abundance (concentration: 0.1mM) of 0.95 ± 0.048 and an NP40-soluble protein abundance (concentration: 0.5mM) of 0.952 ± 0.074.
UniProt Q9UHD8 and related entries gave an NP40-soluble protein abundance (concentration: 0.1mM) of 0.994 ± 0.03 and an NP40-soluble protein abundance (concentration: 0.5mM) of 1.01 ± 0.042.
